Measurements as given in publication PMC5684335, “ER-associated degradation regulates Alzheimer’s amyloid pathology and memory function by modulating γ-secretase activity” (Nature Communications, 2017).
Results are given in words; binding and its absence hold for the method and conditions named. In cells and extracts the contact can be indirect. These calls come from enrichment with a bait or labelling near it, and not all partners need be listed.

Chains of the proteins cited; added tags and fusions are not shown. Residues count along the entry.
UniProt Q8CIV2: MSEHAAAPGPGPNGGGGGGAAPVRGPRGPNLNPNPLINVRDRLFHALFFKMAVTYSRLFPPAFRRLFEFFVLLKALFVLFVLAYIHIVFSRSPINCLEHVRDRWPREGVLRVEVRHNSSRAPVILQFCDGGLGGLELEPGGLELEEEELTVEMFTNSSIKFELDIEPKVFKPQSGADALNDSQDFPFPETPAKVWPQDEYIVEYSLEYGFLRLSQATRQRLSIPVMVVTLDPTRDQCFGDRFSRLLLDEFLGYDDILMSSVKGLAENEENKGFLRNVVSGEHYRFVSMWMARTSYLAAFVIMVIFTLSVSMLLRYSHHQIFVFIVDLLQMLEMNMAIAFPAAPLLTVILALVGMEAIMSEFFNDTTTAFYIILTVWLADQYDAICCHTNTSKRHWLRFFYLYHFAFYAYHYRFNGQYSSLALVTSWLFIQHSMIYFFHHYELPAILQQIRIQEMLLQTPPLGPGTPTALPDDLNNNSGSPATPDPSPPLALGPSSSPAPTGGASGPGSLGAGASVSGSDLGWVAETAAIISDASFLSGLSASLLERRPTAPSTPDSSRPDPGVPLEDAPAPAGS
UniProt Q7L5D6: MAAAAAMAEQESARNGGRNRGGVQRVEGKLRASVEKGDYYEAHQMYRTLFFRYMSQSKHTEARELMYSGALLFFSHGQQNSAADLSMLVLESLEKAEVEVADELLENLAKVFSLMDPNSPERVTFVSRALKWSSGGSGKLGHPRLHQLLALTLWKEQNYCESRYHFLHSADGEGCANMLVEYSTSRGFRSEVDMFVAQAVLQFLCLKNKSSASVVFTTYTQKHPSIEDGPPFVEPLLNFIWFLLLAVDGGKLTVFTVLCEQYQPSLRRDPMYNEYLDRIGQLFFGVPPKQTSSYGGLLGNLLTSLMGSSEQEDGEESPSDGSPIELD
UniProt Q99942: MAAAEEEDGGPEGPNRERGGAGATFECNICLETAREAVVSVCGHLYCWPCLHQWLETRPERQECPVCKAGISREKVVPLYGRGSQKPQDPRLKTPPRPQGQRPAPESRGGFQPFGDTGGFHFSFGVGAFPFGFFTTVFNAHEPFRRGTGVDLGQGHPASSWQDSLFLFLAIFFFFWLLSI
UniProt Q9UKV5: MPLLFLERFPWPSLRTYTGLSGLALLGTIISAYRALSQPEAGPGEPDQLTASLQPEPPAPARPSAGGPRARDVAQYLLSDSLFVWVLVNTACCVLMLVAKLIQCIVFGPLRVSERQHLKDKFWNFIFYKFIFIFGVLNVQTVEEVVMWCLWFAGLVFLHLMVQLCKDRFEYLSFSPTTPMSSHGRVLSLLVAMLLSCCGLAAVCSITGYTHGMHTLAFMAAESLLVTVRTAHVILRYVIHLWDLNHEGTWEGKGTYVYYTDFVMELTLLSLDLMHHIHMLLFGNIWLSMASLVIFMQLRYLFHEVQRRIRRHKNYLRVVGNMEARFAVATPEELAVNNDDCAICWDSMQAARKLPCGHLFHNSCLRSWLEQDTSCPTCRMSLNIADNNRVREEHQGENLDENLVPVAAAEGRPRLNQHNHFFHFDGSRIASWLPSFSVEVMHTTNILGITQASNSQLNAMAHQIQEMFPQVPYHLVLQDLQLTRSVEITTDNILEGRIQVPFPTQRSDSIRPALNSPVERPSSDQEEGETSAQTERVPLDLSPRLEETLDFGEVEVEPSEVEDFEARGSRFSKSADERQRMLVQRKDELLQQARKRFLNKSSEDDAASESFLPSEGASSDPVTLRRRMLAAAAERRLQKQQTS
UniProt Q92542, residues 34-709: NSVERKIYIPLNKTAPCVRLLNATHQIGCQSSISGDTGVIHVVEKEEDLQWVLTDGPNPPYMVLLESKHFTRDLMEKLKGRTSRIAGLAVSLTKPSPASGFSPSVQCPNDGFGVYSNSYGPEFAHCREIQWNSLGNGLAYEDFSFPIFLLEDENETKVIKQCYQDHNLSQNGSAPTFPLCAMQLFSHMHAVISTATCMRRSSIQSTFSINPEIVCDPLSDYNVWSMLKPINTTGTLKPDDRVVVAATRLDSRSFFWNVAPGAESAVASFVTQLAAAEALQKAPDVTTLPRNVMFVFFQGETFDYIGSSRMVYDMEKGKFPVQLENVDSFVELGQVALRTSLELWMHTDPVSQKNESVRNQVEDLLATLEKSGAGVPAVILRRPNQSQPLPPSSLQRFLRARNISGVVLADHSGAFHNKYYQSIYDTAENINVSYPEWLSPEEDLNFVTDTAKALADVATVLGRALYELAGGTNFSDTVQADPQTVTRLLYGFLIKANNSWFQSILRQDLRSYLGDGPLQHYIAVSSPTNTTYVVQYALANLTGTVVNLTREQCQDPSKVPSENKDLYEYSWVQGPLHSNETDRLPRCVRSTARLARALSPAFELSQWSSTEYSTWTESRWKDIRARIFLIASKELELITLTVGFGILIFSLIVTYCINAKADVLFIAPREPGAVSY

B1: HERPUD1 (endogenous, HEK293T) (protein, UniProt Q15011 1-391)
chain: MESETEPEPVTLLVKSPNQRHRDLELSGDRGWSVGHLKAHLSRVYPERPRPEDQRLIYSGKLLLDHQCLRDLLPKQEKRHVLHLVCNVKSPSKMPEINAKVAESTEEPAGSNRGQYPEDSSSDGLRQREVLRNLSSPGWENISRPEAAQQAFQGLGPGFSGYTPYGWLQLSWFQQIYARQYYMQYLAATAASGAFVPPPSAQEIPVVSAPAPAPIHNQFPAENQPANQNAAPQVVVNPGANQNLRMNAQGGPIVEEDDEINRDWLDWTYSAATFSVFLSILYFYSSLSRFLMVMGATVVMYLHHVGWFPFRPRPVQNFPNDGPPPDVVNQDPNNNLQEGTDPETEDPNHLPPDRDVLDGEQTSPSFMSTAWLVFKTFFASLLPEGPPAIAN
B2: Erlin2 (endogenous, HEK293T) (protein, UniProt O94905 1-339)
chain: MAQLGAVVAVASSFFCASLFSAVHKIEEGHIGVYYRGGALLTSTSGPGFHLMLPFITSYKSVQTTLQTDEVKNVPCGTSGGVMIYFDRIEVVNFLVPNAVYDIVKNYTADYDKALIFNKIHHELNQFCSVHTLQEVYIELFDQIDENLKLALQQDLTSMAPGLVIQAVRVTKPNIPEAIRRNYELMESEKTKLLIAAQKQKVVEKEAETERKKALIEAEKVAQVAEITYGQKVMEKETEKKISEIEDAAFLAREKAKADAECYTAMKIAEANKLKLTPEYLQLMKYKAIASNSKIYFGKDIPNMFMDSAGSVSKQFEGLADKLSFGLEDEPLETATKEN
B3: TMEM66 (endogenous, HEK293T) (protein, UniProt Q96BY9 31-339)
chain: WNDPDRMLLRDVKALTLHYDRYTTSRRLDPIPQLKCVGGTAGCDSYTPKVIQCQNKGWDGYDVQWECKTDLDIAYKFGKTVVSCEGYESSEDQYVLRGSCGLEYNLDYTELGLQKLKESGKQHGFASFSDYYYKWSSADSCNMSGLITIVVLLGIAFVVYKLFLSDGQYSPPPYSEYPPFSHRYQRFTNSAGPPPPGFKSEFTGPQNTGHGATSGFGSAFTGQQGYENSGPGFWTGLGTGGILGYLFGSNRAATPFSDSWYYPSYPPSYPGTWNRAYSPLHGGSGSYSVCSNSDTKTRTASGYGGTRRR
B4: Ubac2 (endogenous, HEK293T) (protein, UniProt Q8NBM4 36-344)
chain: HCQKLFVYDLHAVKNDFQIWRLICGRIICLDLKDTFCSSLLIYNFRIFERRYGSRKFASFLLGSWVLSALFDFLLIEAMQYFFGITAASNLPSGFLAPVFALFVPFYCSIPRVQVAQILGPLSITNKTLIYILGLQLFTSGSYIWIVAISGLMSGLCYDSKMFQVHQVLCIPSWMAKFFSWTLEPIFSSSEPTSEARIGMGATLDIQRQQRMELLDRQLMFSQFAQGRRQRQQQGGMINWNRLFPPLRQRQNVNYQGGRQSEPAAPPLEVSEEQVARLMEMGFSRGDALEALRASNNDLNVATNFLLQH
B5: ERLEC1 (endogenous, HEK293T) (protein, UniProt Q96DZ1 34-483)
chain: LPQLSDDIPFRVNWPGTEFSLPTTGVLYKEDNYVIMTTAHKEKYKCILPLVTSGDEEEEKDYKGPNPRELLEPLFKQSSCSYRIESYWTYEVCHGKHIRQYHEEKETGQKINIHEYYLGNMLAKNLLFEKEREAEEKEKSNEIPTKNIEGQMTPYYPVGMGNGTPCSLKQNRPRSSTVMYICHPESKHEILSVAEVTTCEYEVVILTPLLCSHPKYRFRASPVNDIFCQSLPGSPFKPLTLRQLEQQEEILRVPFRRNKEEDLQSTKEERFPAIHKSIAIGSQPVLTVGTTHISKLTDDQLIKEFLSGSYCFRGGVGWWKYEFCYGKHVHQYHEDKDSGKTSVVVGTWNQEEHIEWAKKNTARAYHLQDDGTQTVRMVSHFYGNGDICDITDKPRQVTVKLKCKESDSPHAVTVYMLEPHSCQYILGVESPVICKILDTADENGLLSLPN
B6: FAM8A1 (endogenous, HEK293T) (protein, UniProt Q9UBU6 1-413)
chain: MAEGPEEARGHPPGQDDGGGDHEPVPSLRGPPTTAVPCPRDDPQAEPQAPGRPTAPGLAAAAAADKLEPPRELRKRGEAASGSGAELQEQAGCEAPEAAAPRERPARLSAREYSRQVHEWLWQSYCGYLTWHSGLAAFPAYCSPQPSPQSFPSGGAAVPQAAAPPPPQLGYYNPFYFLSPGAAGPDPRTAAGISTPAPVAGLGPRAPHVQASVRATPVTRVGSAAPSRSPSETGRQAGREYVIPSLAHRFMAEMVDFFILFFIKATIVLSIMHLSGIKDISKFAMHYIIEEIDEDTSMEDLQKMMVVALIYRLLVCFYEIICIWGAGGATPGKFLLGLRVVTCDTSVLIAPSRVLVIPSSNVSITTSTIRALIKNFSIASFFPAFITLLFFQHNRTAYDIVAGTIVVKRNGVR
B7: OS9 (endogenous, HEK293T) (protein, UniProt Q13438 26-667)
chain: GGVGSLNLEELSEMRYGIEILPLPVMGGQSQSSDVVIVSSKYKQRYECRLPAGAIHFQREREEETPAYQGPGIPELLSPMRDAPCLLKTKDWWTYEFCYGRHIQQYHMEDSEIKGEVLYLGYYQSAFDWDDETAKASKQHRLKRYHSQTYGNGSKCDLNGRPREAEVRFLCDEGAGISGDYIDRVDEPLSCSYVLTIRTPRLCPHPLLRPPPSAAPQAILCHPSLQPEEYMAYVQRQADSKQYGDKIIEELQDLGPQVWSETKSGVAPQKMAGASPTKDDSKDSDFWKMLNEPEDQAPGGEEVPAEEQDPSPEAADSASGAPNDFQNNVQVKVIRSPADLIRFIEELKGGTKKGKPNIGQEQPVDDAAEVPQREPEKERGDPERQREMEEEEDEDEDEDEDEDERQLLGEFEKELEGILLPSDRDRLRSEVKAGMERELENIIQETEKELDPDGLKKESERDRAMLALTSTLNKLIKRLEEKQSPELVKKHKKKRVVPKKPPPSPQPTEEDPEHRVRVRVTKLRLGGPNQDLTVLEMKRENPQLKQIEGLVKELLEREGLTAAGKIEIKIVRPWAEGTEEGARWLTDEDTRNLKEIFFNILVPGAEEAQKERQRQKELESNYRRVWGSPGGEGTGDLDEFDF

Molecular target: Myc-tagged mouse membralin (mouse) (UniProt Q8CIV2)
Test: affinity purification with mass spectrometry; Myc-tagged mouse membralin or empty Myc vector in HEK293T, 3 days; lysates in Digitonin, Triton X-100 or NP40 IP lysis buffer; anti-Myc magnetic beads overnight; LC-MS/MS, MaxQuant, human UniProt database

Row | Molecule | binding
1 | GET4 (endogenous, HEK293T) (from UniProt Q7L5D6 1-327) | binds
2 | RNF5 (endogenous, HEK293T) (from UniProt Q99942 1-180) | binds
3 | AMFR (endogenous, HEK293T) (from UniProt Q9UKV5 1-643) | binds
4 | nicastrin (endogenous, HEK293T) (from UniProt Q92542 34-709) | binds
5 | B1 | binds
6 | B2 | binds
7 | B3 | binds
8 | B4 | binds
9 | B5 | binds
10 | B6 | binds
11 | B7 | binds
